This is an account of results in PubChem BioAssay AID445 (National Center for Advancing Translational Sciences (NCATS), 2006).

One may read the AC50 as the concentration at which the activity in the assay is half-maximal.

A short description of this assay: IkB Signaling. Particulars: ABC-DLBCL IkBa-CBG/CBR dual luciferase ratio (green luciferase fused to IkBa over red control in OCI-Ly3 lymphoma cells), 4 h. An outline of the steps: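 In this assay, an IκBα–CBG68 fusion accumulates when IKK-driven degradation is blocked; native CBR normalizes for cell number. OCI-Ly3 cells were treated 4 h with compound and doxycycline, then green and red light read after Chroma-Glo addition.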
Where [1] appears, read: measured here: control luc red channel unless noted.
The mark [2] stands for this setting: measured here: IkB-luc green channel.
Where [3] appears, read: measured here: control luc red channel.

SMILES strings stand for the structures. The list shows a part of the results. Further columns of the screen follow, without active or inactive calls. Compounds called inactive in the main read-out are mostly missing here. Potencies come from curve fits of mixed quality, noted in brackets.

Consider `CCOC(=O)Cc1[nH]nc2c1C(C1C=CCCC1)C(C#N)=C(N)O2` (centres undefined), for which, under setting [1], the AC50 was 7.94 µM [falling, partial curve]. Turning to `O=C(Nc1ccc(S(=O)(=O)N2CCC(c3nc4ccccc4s3)CC2)cc1)c1ccccc1F`, the AC50 under setting [1] was 15.8 µM [falling, partial curve].

Consider `CCOC(=O)Cc1csc(NC(=O)CSc2nnnn2-c2ccc(CC)cc2)n1`, for which the AC50 under setting [1] is 25.1 µM [falling, partial curve]. Same read-out and setting: the same measure for `COc1ccc(-c2nnc(SC(=O)N3c4ccccc4Sc4ccccc43)o2)cc1`: 2.51 µM [falling, full curve, poor fit]; for `Cc1csc(NC(=O)C(Cc2ccccc2)n2cccc2)n1` (centres undefined): 12.6 µM [falling, partial curve]. Turning to `CCCCCOc1ccc(C(=O)N(Cc2ccccc2)C2CCS(=O)(=O)C2)cc1` (centres undefined), the AC50 under setting [1] was 25.1 µM [falling, partial curve].

With `N#Cc1cccc(NC(=O)NCCc2c[nH]c3ccccc23)c1`, the AC50 under setting [1] is 15.8 µM [falling, partial curve]. Regarding `Cc1ccc2nc(/C(C#N)=C/c3ccc(-c4cccc(Cl)c4)o3)[nH]c2c1`, under setting [1], the AC50 was 7.94 µM [falling, full curve]. Same read-out and setting: the same measure for `CN(C)c1ccc(CN(CC2CCCO2)C(=O)COc2ccc(Cl)cc2)cc1` (centres undefined): 12.6 µM [falling, partial curve]; for `CCc1ccc(-n2c(C)nc3cc(C(=O)NCCc4ccccc4)ccc32)cc1`: 25.1 µM [falling, partial curve, poor fit]; for `COc1cccc(CN2C(=O)c3ccccc3C2C(=O)NCCc2ccc(OC)c(OC)c2)c1` (centres undefined): 2 µM [rising, partial curve]. On to `CC(=O)N1CCCc2cc(S(=O)(=O)N3CCCC(C(=O)NCc4ccc(Cl)cc4)C3)ccc21` (centres undefined), for which the AC50 under setting [1] was 0.00794 µM [falling, full curve].

For `Cc1cc(O)c(C(c2cccc(Cl)c2)N2CCN(c3ccccc3)CC2)c(=O)n1Cc1ccco1` (centres undefined), the AC50 under setting [1] is 1.58 µM [falling, full curve, poor fit].

As to `CCc1cc(C(=O)Cc2cnn(-c3ccccc3)c2)c(O)cc1O`, the AC50 is 39.8 µM [falling, single point] under setting [2] and 39.8 µM [falling, single point] under setting [3]. For the compound `Cc1ccc(-c2nc3c4cnn(-c5cc(Cl)ccc5Cl)c4ncn3n2)cc1`, the AC50 under setting [1] is 0.0158 µM [rising, full curve, poor fit]. `CCOC(=O)c1c(NC(=O)c2ccco2)sc(C(=O)N2CCCC2)c1C`: the AC50 under setting [1] is 0.0316 µM [rising, full curve, poor fit]. For `CC(C)Cc1nn2c(=O)cc(COC(=O)c3ccccc3NC(=O)c3ccccc3)nc2s1`, the AC50 under setting [1] was 15.8 µM [falling, single point]. On to `Cc1ccc(S(=O)(=O)N2CCN(C(=O)CSc3nc4ccccc4c(=O)[nH]3)CC2)c(C)c1`, for which the AC50 under setting [1] is 31.6 µM [falling, partial curve]. On to `CCOC(=O)N1CCc2c(sc3c2c(=O)n(Cc2ccccc2)c(=O)n3Cc2ccc(C)cc2)C1`, for which the AC50 under setting [1] is 12.6 µM [falling, single point]. With `Cc1ccc(-c2noc(C3CCN(C(=O)Nc4ccc(C#N)cc4)CC3)n2)o1`, the AC50 under setting [1] was 39.8 µM [falling, single point]. For `CCOc1ccccc1CNC(=O)c1ccc(Cn2c(SCc3ccccc3)nc3cccnc32)cc1`, under setting [1], the AC50 is 10 µM [falling, partial curve].

Take `N#CC1=C2SCC(O)(c3ccccc3)N2C(=O)CC1c1cccs1` (centres undefined): the AC50 under setting [1] is 5.01 µM [falling, partial curve]. For `Cc1cc(C)c2nc(NC(=O)c3ccc(S(=O)(=O)N4CCC(C)CC4)cc3)sc2c1`, the AC50 under setting [1] is 0.316 µM [falling, full curve, poor fit]. Take `CC(C)OC(=O)/C(C#N)=C/c1ccc(-c2ccc(Cl)c(Cl)c2)o1`: the AC50 under setting [1] is 6.31 µM [rising, single point]. With `CCOC(=O)c1ccc(NC(=O)CC2C(=O)N(c3ccc(F)cc3)C(=O)N2Cc2ccc(C)cc2)cc1` (centres undefined), the AC50 under setting [1] was 15.8 µM [falling, single point]. As to `COc1ccc(Nc2cc(C(=O)NCCCN(C)Cc3ccccc3)c3ccccc3n2)cc1`, the AC50 under setting [1] was 15.8 µM [falling, partial curve].

For `CCOC(=O)c1ccccc1NC(=O)CSc1nnc(Cc2cccn2C)n1-c1ccc(C)cc1`, under setting [1], the AC50 is 31.6 µM [falling, partial curve]. Take `CCOc1cc(C2Sc3ccccc3NC3=C2C(=O)c2ccccc23)ccc1O` (centres undefined): the AC50 under setting [1] is 39.8 µM [falling, single point]. For `COc1ccc(C(=O)Nc2ccccc2-c2nc3ccccc3s2)c(OC)c1`, the AC50 under setting [1] is 0.316 µM [falling, full curve, poor fit]. In the case of `CCOC(=O)c1cnc2ccc(Cl)cc2c1Nc1ccc(OCC)cc1`, under setting [1], the AC50 is 31.6 µM [falling, single point].

Take `COc1ccc(-c2nc(C#N)c(NCc3ccc(F)cc3)o2)cc1OC`: the AC50 under setting [1] is 20 µM [falling, single point].

For the compound `CC(C)OCCCNC(=O)CSc1c2c(nc3ccc(Cl)cc13)CCCC2`, the AC50 is, setting by setting: under setting [2], 12.6 µM [rising, partial curve]; under setting [3], 12.6 µM [falling, partial curve]. For `COc1cccc(-c2nc3c(c(SCC(=O)Nc4cc(C)ccc4C)n2)Cc2c(CO)cnc(C)c2O3)c1`, under setting [1], the AC50 was 0.0158 µM [rising, full curve]. For the compound `CC(=O)c1ccc(NC(=O)CCc2nc(-c3ccc(C)cc3)no2)cc1`, the AC50 under setting [1] was 25.1 µM [falling, partial curve]. On the same count and under the same terms, the same measure for `CC(=O)c1ccc(NC(=O)CSc2nc(C3CCCC3)nc3c2c(=O)n(C)c(=O)n3C)cc1`: 15.8 µM [falling, partial curve]; for `Cc1c(NC(=O)c2ccc(Br)o2)cccc1-c1nc2ccccc2o1`: 1 µM [falling, full curve, poor fit]; for `CCCSc1nc2sc3c(c2c(=O)n1-c1cccc(Br)c1)CC(C)(C)OC3`: 3.16 µM [rising, single point]. Turning to `Cc1ccccc1Cn1c(SCc2ccc(C(=O)NC3CCCC3)cc2)nc2ccncc21`, under setting [1], the AC50 was 39.8 µM [falling, partial curve].

`CC(=O)Nc1ccc(Nc2ncnc3c2c(-c2ccccc2)cn3-c2ccc(C)c(Cl)c2)cc1`: under setting [1], the AC50 is 3.16 µM [falling, full curve]. For `COc1ccccc1N=c1scc(-c2ccc(S(=O)(=O)N3CCCC3)cc2)n1C`, the AC50 under setting [1] is 3.16 µM [falling, full curve]. The same measure, in the same setting: as for `COc1ccccc1CNC(=O)CCNS(=O)(=O)c1cccc2nsnc12`, the figure is 3.16 µM [falling, single point]; as for `COc1cccc(NC(=O)N2CCN(C(=O)c3nsc4ccccc34)CC2)c1`, 15.8 µM [falling, single point]. Consider `Cc1nc2c(c(C)nn2-c2ccccc2)c(C)c1CCC(=O)NCCc1ccc(Cl)cc1`, for which the AC50 under setting [1] is 7.94 µM [falling, full curve]. Consider `Fc1ccc(N2CCN(Cc3cccn3-c3nnc(N4CCN(C5CCCCC5)CC4)s3)CC2)cc1`, for which the AC50 under setting [1] is 39.8 µM [falling, single point]. Regarding `Cc1ccc(NC(=O)C2CCCN(c3cnccn3)C2)c(C)c1` (centres undefined), the AC50 under setting [1] was 0.158 µM [rising, full curve, poor fit].

For the compound `CCc1ccccc1NC(=O)c1cc2c(Cl)nc3ccccc3c2s1`, the half-maximal activity concentration (AC50) under setting [1] was 39.8 µM [falling, single point]. As to `COc1cc2[nH]c(=O)n(CCCCCC(=O)N3CCN(c4ccc(Cl)cc4)CC3)c(=O)c2cc1OC`, the AC50 is 39.8 µM [rising, single point] under setting [2] and 6.31 µM [falling, single point] under setting [3]. Regarding `O=C(CSc1cn(CC(=O)N2CCCC2)c2ccccc12)Nc1ccccc1C(F)(F)F`, the AC50 under setting [1] is 39.8 µM [falling, single point]. As to `Cc1cccc(Cn2c(=O)n(CC3CCC(C(=O)N4CCC(C)CC4)CC3)c(=O)c3sccc32)c1` (centres undefined), the AC50 under setting [1] was 31.6 µM [falling, single point]. On to `CC(C)(C)OC(=O)N[C@@H](Cc1ccccc1)c1nnc(S(=O)(=O)Cc2cccc(F)c2)o1`, for which the AC50 was 6.31 µM [rising, single point] under setting [2] and 7.94 µM [falling, partial curve] under setting [3]. With `Cc1ccc(CNC(=O)CN(c2cc(C)cc(C)c2)S(=O)(=O)c2c(C)noc2C)cc1`, under setting [1], the concentration at half-maximal activity (AC50) was 3.16 µM [falling, full curve, poor fit].

In the case of `Cc1nc2cc(-c3ccccc3)nn2c(C)c1CCC(=O)NCc1cccc(Cl)c1`, under setting [1], the AC50 is 12.6 µM [falling, partial curve]. Take `COC(=O)c1ccc(OCC(=O)Nc2nn(-c3ccccc3)nc2C(N)=O)cc1`: the AC50 runs as follows: under setting [2], 2.51 µM [rising, partial curve]; under setting [3], 3.16 µM [rising, partial curve]. In the case of `COC(=O)c1ccccc1NC(=O)c1ccc2c(Cl)c3c(nc2c1)CCCC3`, under setting [1], the AC50 is 3.98 µM [falling, full curve].

For `CN(CC(=O)N1CCN(c2ccccn2)CC1)S(=O)(=O)c1ccc2ccccc2c1`, the AC50 under setting [1] was 15.8 µM [falling, partial curve]. Still for that read-out and setting: the same measure for `O=C(Nc1cccc(Br)c1)c1cc(-c2ccc3c(c2)OCCO3)on1`: 0.794 µM [falling, partial curve]. Consider `CCn1nnc(NC(=O)c2ccc(-c3ccc(Cl)cc3)o2)n1`, for which the AC50 under setting [1] was 12.6 µM [falling, partial curve]. Turning to `Cc1ccc(-n2cnc3cc(C(=O)NCc4ccccc4Cl)ccc32)c(C)c1`, the AC50 under setting [1] is 25.1 µM [falling, single point]. Still for that read-out and setting: the same measure for `COc1ccc(CC(=O)NCc2ccc3c(c2)CCN3C(=O)c2cccc(C)c2)cc1`: 0.1 µM [falling, full curve, poor fit].
